The subject of the series is Primary human MSCs. The experiment in a line: EV secretion per cell from MSCs on hydrogel substrates, nanoparticle tracking analysis. The series is classed as cell-based. As to conditions: 3 μM Mn2+ or 200 nM EMD 121974 treatment. The method, then: Cell Seeding on Hydrogels. Hydrogel discs were placed in ultra-low binding polystyrene well plates (Corning) to ensure cells attach to hydrogels and not the plate surface. Hydrogels were washed with Hank's buffered salt solution (HBSS, Thermo Fisher Scientific) for at least 3 days before seeding cells. Cells were seeded at a low density (25 cells/mm^2). After seeding, hydrogels were washed thoroughly to remove unattached cells. Drug treatments of 3 μM MnCl2 (Thermo Fisher Scientific), 200 nM EMD 121974 sold under the tradename Cilengitide® (Cayman) and 5 μM CK869 (Cayman) were applied during and after cell adhesion to substrates. […] After incubation at room temperature (RT) for 10 minutes, the samples were analyzed for live and dead cell number by flow cytometry. […]
To test the effect of substrate mechanics on EV secretion from MSCs, hydrogel substrates were engineered which were composed of alginate polymer conjugated with the cell adhesion peptide Arg-Gly-Asp (RGD) that binds primarily to αvβ3 and α5β1 integrins. […] After centrifugation of the medium at 10,000 g to remove cell, apoptotic, and larger particle fractions, particles remaining in the medium were analyzed by nanoparticle tracking analysis and normalized to the number of live adhered cells counted by flow cytometry (see Methods). […]

Regarding `[Cl][Mn][Cl]` [MnCl2], the particle size entry is recorded as “Neither treatment significantly affected”.
Take `CC(C)[C@H]1C(=O)N[C@@H](CCCN=C(N)N)C(=O)NCC(=O)N[C@@H](CC(=O)O)C(=O)N[C@H](Cc2ccccc2)C(=O)N1C` [EMD 121974]: the particle size entry is reported as “Neither treatment significantly affected”.

For the origin of these results see patent US20230279379A1, “METHODS AND MICROFLUIDIC DEVICE FOR PRODUCING EXTRACELLULAR VESICLES” (THE BOARD OF TRUSTEES OF THE UNIVERSITY OF ILLINOIS, priority 2022, published 2023).
